Results: patent US12239134B2, “Plant antimicrobial compositions including an emulsifier and/or ozone and methods of use” (Arizona Board of Regents on Behalf of The University of …, priority 2018, dated 2025)

Assay: Residual ozone in wash water, Indigo Colorimetric Method
Assay type: physicochemical

With `O=[O+][O-]` [ozonized water, ozone] the “concentration of ozone in water” value (60 min) was 0.17 ± 0.04 mg/L, the “concentration of ozone in water” value (90 min) was 0.18 ± 0.04 mg/L and the “concentration of ozone in water” value (120 min) was 0.23 ± 0.07 mg/L. The “average concentration of ozone in the wash water” value (at the end of treatments) was 0.2 mg/L.
